According to PubChem BioAssay AID504834 (National Center for Advancing Translational Sciences (NCATS), 2011):
The campaign covered roughly 320,000 compounds. About 22,000 (6.9%) were called active. The inconclusive results got no clear call from the source; some entries with a clear call stand among them for comparison. Calls follow the shape of the dose curve; as a rule, active = well fitted inhibition curve with a large enough effect; inconclusive = small, poorly fitted or top-dose-only effect, or another doubt; inactive = no such curve, though single readings can be large or run the other way. Where the call is inconclusive, the potency comes from a doubtful curve fit.

test: Primary qHTS for delayed death inhibitors of the malarial parasite plastid, 96 hour incubation; conditions: P. falciparum luciferase reporter growth; series mostly up to 28.7 µM
In short: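 Parasite growth measured via integrated firefly luciferase reporter in P. falciparum. Infected erythrocytes at 2% hematocrit, 0.05% parasitemia final were treated 96 hours at 37 C under 5% CO2, and luminescence was read.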
Potency is read from the fitted curve at half-maximal effect.

**Q.** For `CCCCNC(=O)c1cn(-c2ccc(OCC)cc2)c(=O)c2cc(OC)c(OC)cc12`, which Potency is on record?
**A.** inactive

**Q.** For `CCCCN(C)CCCN1C(=O)C2C(C(=O)Nc3cccc(OC)c3)C3C=CC2(O3)C1C(=O)NC1CCCCC1C` (stereo not drawn), which Potency is on record?
**A.** inconclusive: 9.28 µM [inhibitor, partial curve, poor fit]

**Q.** Which Potency does the source give for `CCOC(=O)N1CCN(S(=O)(=O)c2ccc(C(=O)NNc3nc4cc(C)cc(C)c4s3)cc2)CC1` here?
**A.** inconclusive: 11.7 µM [inhibitor, single point]

**Q.** Which Potency does the source give for `O=C(C[n+]1ccccc1)N/N=C/c1c(F)cccc1Cl` here?
**A.** inactive

**Q.** For `COc1ccc(NC(=S)Nc2cc(-c3ccccc3)[nH]n2)cc1Cl`, which Potency is on record?
**A.** inconclusive: 18.5 µM [inhibitor, single point]

**Q.** For `O=C(Nc1ccc(Cl)cc1)NC1CCCCNC1=O` (stereo not drawn), which Potency is on record?
**A.** inactive

**Q.** Which Potency does the source give for `Cc1ccc(NC(=O)Nc2cc(C)on2)cc1` here?
**A.** inconclusive: 1.65 µM [inhibitor, full curve]

**Q.** With `Cc1ccc(S(=O)(=O)N2CCN(C(=O)CCNC(=O)c3ccccc3Cl)CC2)cc1` as the molecule, how does the Potency read?
**A.** inconclusive: 4.65 µM [inhibitor, partial curve]

**Q.** Which Potency does the source give for `N[C@@H](Cc1ccc(O)cc1)C(=O)O` here?
**A.** inconclusive: 4.78 µM [inhibitor, partial curve, poor fit]

**Q.** Which Potency does the source give for `CCOCCCNC(=O)C1CCN(S(=O)(=O)c2ccc(C)cc2)CC1` here?
**A.** inconclusive: 11.7 µM [inhibitor, partial curve]

**Q.** With `Cc1ccc(NC(=O)CSc2nc3ccccc3nc2N2CCOCC2)c(C)c1` as the molecule, how does the Potency read?
**A.** inconclusive: 11.7 µM [inhibitor, single point]

**Q.** With `Cc1cccc(C)c1OCc1cc(C(=O)NCc2ccc(Cl)s2)no1` as the molecule, how does the Potency read?
**A.** active: 10.4 µM

**Q.** Which Potency does the source give for `COc1ccc(NS(=O)(=O)c2ccc(NC(=O)c3cnn4c(C(F)F)cc(-c5ccc(C)cc5)nc34)cc2)cc1` here?
**A.** active: 0.828 µM

**Q.** With `COC(=O)c1ccc(C2c3[nH]c4ccccc4c3C[C@H]3C(=O)N(C4CCN(Cc5ccccc5)CC4)CC(=O)N23)cc1` (stereo partly drawn) as the molecule, how does the Potency read?
**A.** active: 3.29 µM

**Q.** With `CC(C)(C)C(=O)[C@@H]1[C@@H]2C(=O)N(C3CCCCC3)C(=O)[C@@H]2[C@H]2c3ccccc3C=CN12` as the molecule, how does the Potency read?
**A.** active: 14.7 µM

**Q.** Which Potency does the source give for `COCCN(C(=O)CCCC(=O)Nc1ccccn1)C(C(=O)NC1CCCC1)c1ccc(C)cc1` (stereo not drawn) here?
**A.** inconclusive: 13.1 µM [inhibitor, single point]

**Q.** With `CC(=O)N1CCc2cc(S(=O)(=O)NCCC(=O)N3CCN(Cc4ccccc4)CC3)ccc21` as the molecule, how does the Potency read?
**A.** inconclusive: 1.04 µM [inhibitor, partial curve, poor fit]

**Q.** Which Potency does the source give for `Cc1sc2nc(SCC(=O)NCc3ccco3)n(-c3ccccc3)c(=O)c2c1C` here?
**A.** inactive

**Q.** Which Potency does the source give for `COc1ccc(NS(=O)(=O)c2cccc(C(=O)N3CCC3)c2)cc1` here?
**A.** inactive

**Q.** Which Potency does the source give for `Cc1ccc(S(=O)(=O)NC(CC(C)C)C(=O)N2CC(C)OC(C)C2)cc1` (stereo not drawn) here?
**A.** inconclusive: 14.7 µM [inhibitor, partial curve, poor fit]

**Q.** For `Cc1ccc(C)c(SCC(=O)OCC(=O)N2CC(C)OC(C)C2)c1` (stereo not drawn), which Potency is on record?
**A.** inactive

**Q.** Which Potency does the source give for `COC(=O)CC1C(=O)NCCN1C(=O)CSc1nnnn1-c1ccc(OC)cc1` (stereo not drawn) here?
**A.** inactive

**Q.** With `COc1ccc(C(=O)c2sc(Nc3ccccc3)nc2C)cc1` as the molecule, how does the Potency read?
**A.** inconclusive: 4.65 µM [inhibitor, partial curve, poor fit]

**Q.** With `CC1(NC(=O)CC[N+](C)(C)CCO)CS(=O)(=O)CC1S(=O)(=O)[O-]` (stereo not drawn) as the molecule, how does the Potency read?
**A.** inactive

**Q.** For `O=C(Nc1cccnc1)c1ccccc1Oc1ccccc1`, which Potency is on record?
**A.** inactive

**Q.** With `Cn1c(=O)c2c(c3ccccc31)OC(=O)CC2c1cccnc1` (stereo not drawn) as the molecule, how does the Potency read?
**A.** inconclusive: 14.7 µM [inhibitor, partial curve, poor fit]

**Q.** With `COc1nc2ccccc2nc1CCC(=O)O` as the molecule, how does the Potency read?
**A.** inconclusive: 18.5 µM [inhibitor, single point]

**Q.** For `O=C(c1ccc(S(=O)(=O)N2CCOCC2)cc1)N1CCOCC1`, which Potency is on record?
**A.** inactive

**Q.** For `CC(NC(=O)Cc1cccc2ccccc12)C(=O)N1CCC(=O)CC1` (stereo not drawn), which Potency is on record?
**A.** inconclusive: 10.4 µM [inhibitor, single point]

**Q.** Which Potency does the source give for `COc1ccc(OC)c(NC(=O)CSc2nnc(-c3ccco3)n2-c2ccc(C(=O)O)cc2)c1` here?
**A.** active: 0.415 µM

**Q.** For `Cc1ccc(CCNC(=O)C2CCN(S(=O)(=O)N3CCCCC3)CC2)cc1`, which Potency is on record?
**A.** inconclusive: 18.5 µM [inhibitor, single point]

**Q.** Which Potency does the source give for `Cc1nn2c(NCC(C)C)c3c(nc2c1-c1ccccc1)CCC3` here?
**A.** inconclusive: 4.15 µM [inhibitor, single point]

**Q.** Which Potency does the source give for `COc1ccc(S(=O)(=O)N2CCC(C(=O)NCCCc3ccccc3)CC2)cc1` here?
**A.** inactive

**Q.** With `Cc1cccc(NC(=O)CN2CCN(CC(=O)Nc3cccc(C)c3)CC2)c1` as the molecule, how does the Potency read?
**A.** inconclusive: 8.28 µM [inhibitor, partial curve]

**Q.** Which Potency does the source give for `N#Cc1c(N)sc(=S)c2c1CCCCC2` here?
**A.** inconclusive: 10.4 µM [inhibitor, partial curve, poor fit]

**Q.** With `Cc1ccc(NC(=O)C2(NC(=O)c3cccc(N4C(=O)CSC4c4ccccc4)c3)CCCCC2)cc1` (stereo not drawn) as the molecule, how does the Potency read?
**A.** inconclusive: 2.94 µM [inhibitor, full curve, poor fit]

**Q.** Which Potency does the source give for `CCC(C)(C)NC(=O)CSc1nc(Cc2ccccc2)nc2ccccc12` here?
**A.** inconclusive: 0.294 µM [inhibitor, full curve, poor fit]

**Q.** With `CNC(=O)c1cc(S(=O)(=O)Nc2ccc(C)cc2C)ccc1C` as the molecule, how does the Potency read?
**A.** inactive

**Q.** With `COc1cc(N2CCCC2)c(OC)cc1/C=C(/C#N)c1ccc(Br)cc1` as the molecule, how does the Potency read?
**A.** inconclusive: 14.7 µM [inhibitor, partial curve, poor fit]

**Q.** For `CCC1Oc2ccccc2N(CC(=O)Nc2ccc(OC)cc2OC)C1=O` (stereo not drawn), which Potency is on record?
**A.** inconclusive: 13.1 µM [inhibitor, single point]

**Q.** Which Potency does the source give for `COC(=O)c1ccc(NS(=O)(=O)NC(=O)c2c[nH]c3ccccc23)cc1` here?
**A.** inconclusive: 18.5 µM [inhibitor, single point]

**Q.** Which Potency does the source give for `CCCCNC(=O)CSc1nnc(Cc2ccccc2)n1CC` here?
**A.** inconclusive: 9.28 µM [inhibitor, partial curve, poor fit]

**Q.** With `O=C(N/N=C/c1ccc(N2CCOCC2)cc1)c1ccccc1NS(=O)(=O)c1cccs1` as the molecule, how does the Potency read?
**A.** inconclusive: 8.28 µM [inhibitor, partial curve]
